This is one part of the list.
compound: COc1ccc(Cn2ccc3cc(C)c(C(=O)NO)cc32)cc1; assay: dose-dependent thermal stabilisation call (2D-TPP, DLPTP, 10% FDR) (binary (1 = stabilised)); higher = stabilised by the compound; conditions: system: HL-60 intact cells; concentration range 0.04-10 µM
Protocol: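 2D thermal proteome profiling in intact HL-60 cells treated with BRD-3811 (0, 0.04, 0.29, 2, 10 uM) for 90 min at 37 C, then heated 3 min at one of 12 temperatures (42-63.9 C). Soluble protein was quantified by TMT10 MS. The value is the DLPTP call of the paper: dose-dependent thermal stabilisation over all temperatures at 10% FDR (F-test of a dose-response against a flat model); one experiment, one call per tested protein.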

Amino acid sequences for entries named in this document (tags omitted). A change or cut given only in a name is not applied to a line headed by its entry.
UniProt Q9BZX2: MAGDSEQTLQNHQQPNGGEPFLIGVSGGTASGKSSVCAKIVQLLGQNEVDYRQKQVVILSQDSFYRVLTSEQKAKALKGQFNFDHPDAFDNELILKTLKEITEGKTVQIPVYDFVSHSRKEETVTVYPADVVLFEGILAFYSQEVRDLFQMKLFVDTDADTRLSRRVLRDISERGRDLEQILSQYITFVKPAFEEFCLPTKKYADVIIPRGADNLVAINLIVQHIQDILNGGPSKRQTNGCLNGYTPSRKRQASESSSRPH
UniProt P50552: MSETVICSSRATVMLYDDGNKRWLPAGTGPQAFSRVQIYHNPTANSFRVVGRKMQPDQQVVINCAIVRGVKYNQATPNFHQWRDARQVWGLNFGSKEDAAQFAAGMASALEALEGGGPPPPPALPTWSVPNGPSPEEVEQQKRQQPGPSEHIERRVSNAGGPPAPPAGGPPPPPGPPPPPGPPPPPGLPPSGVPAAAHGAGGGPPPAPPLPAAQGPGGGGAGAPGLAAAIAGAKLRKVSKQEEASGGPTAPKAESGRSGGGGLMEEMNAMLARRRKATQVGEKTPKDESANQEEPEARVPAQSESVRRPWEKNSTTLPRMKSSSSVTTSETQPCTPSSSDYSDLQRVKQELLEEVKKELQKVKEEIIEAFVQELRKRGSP
UniProt O14949: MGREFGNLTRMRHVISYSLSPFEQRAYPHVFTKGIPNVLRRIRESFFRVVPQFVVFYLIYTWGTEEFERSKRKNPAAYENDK
UniProt Q16851: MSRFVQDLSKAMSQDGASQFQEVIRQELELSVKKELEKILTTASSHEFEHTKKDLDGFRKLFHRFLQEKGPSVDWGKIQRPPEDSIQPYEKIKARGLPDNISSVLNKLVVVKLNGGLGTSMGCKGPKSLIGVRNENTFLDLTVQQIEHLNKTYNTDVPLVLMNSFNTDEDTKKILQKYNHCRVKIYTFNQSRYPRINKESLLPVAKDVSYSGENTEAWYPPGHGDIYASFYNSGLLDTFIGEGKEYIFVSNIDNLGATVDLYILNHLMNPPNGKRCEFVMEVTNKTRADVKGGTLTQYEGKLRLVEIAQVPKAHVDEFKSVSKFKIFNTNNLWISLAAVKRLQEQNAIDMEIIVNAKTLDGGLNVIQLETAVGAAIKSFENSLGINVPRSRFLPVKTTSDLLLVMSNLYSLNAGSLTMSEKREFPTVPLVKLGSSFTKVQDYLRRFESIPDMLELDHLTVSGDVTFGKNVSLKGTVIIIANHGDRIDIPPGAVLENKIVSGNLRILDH
UniProt Q01081: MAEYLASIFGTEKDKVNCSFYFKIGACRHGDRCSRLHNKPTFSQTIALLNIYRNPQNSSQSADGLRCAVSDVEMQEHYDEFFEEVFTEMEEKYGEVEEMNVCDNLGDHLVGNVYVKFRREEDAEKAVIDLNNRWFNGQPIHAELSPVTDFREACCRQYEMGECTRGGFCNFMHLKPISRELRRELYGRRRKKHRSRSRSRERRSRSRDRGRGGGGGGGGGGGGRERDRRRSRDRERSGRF
UniProt Q9UPU5: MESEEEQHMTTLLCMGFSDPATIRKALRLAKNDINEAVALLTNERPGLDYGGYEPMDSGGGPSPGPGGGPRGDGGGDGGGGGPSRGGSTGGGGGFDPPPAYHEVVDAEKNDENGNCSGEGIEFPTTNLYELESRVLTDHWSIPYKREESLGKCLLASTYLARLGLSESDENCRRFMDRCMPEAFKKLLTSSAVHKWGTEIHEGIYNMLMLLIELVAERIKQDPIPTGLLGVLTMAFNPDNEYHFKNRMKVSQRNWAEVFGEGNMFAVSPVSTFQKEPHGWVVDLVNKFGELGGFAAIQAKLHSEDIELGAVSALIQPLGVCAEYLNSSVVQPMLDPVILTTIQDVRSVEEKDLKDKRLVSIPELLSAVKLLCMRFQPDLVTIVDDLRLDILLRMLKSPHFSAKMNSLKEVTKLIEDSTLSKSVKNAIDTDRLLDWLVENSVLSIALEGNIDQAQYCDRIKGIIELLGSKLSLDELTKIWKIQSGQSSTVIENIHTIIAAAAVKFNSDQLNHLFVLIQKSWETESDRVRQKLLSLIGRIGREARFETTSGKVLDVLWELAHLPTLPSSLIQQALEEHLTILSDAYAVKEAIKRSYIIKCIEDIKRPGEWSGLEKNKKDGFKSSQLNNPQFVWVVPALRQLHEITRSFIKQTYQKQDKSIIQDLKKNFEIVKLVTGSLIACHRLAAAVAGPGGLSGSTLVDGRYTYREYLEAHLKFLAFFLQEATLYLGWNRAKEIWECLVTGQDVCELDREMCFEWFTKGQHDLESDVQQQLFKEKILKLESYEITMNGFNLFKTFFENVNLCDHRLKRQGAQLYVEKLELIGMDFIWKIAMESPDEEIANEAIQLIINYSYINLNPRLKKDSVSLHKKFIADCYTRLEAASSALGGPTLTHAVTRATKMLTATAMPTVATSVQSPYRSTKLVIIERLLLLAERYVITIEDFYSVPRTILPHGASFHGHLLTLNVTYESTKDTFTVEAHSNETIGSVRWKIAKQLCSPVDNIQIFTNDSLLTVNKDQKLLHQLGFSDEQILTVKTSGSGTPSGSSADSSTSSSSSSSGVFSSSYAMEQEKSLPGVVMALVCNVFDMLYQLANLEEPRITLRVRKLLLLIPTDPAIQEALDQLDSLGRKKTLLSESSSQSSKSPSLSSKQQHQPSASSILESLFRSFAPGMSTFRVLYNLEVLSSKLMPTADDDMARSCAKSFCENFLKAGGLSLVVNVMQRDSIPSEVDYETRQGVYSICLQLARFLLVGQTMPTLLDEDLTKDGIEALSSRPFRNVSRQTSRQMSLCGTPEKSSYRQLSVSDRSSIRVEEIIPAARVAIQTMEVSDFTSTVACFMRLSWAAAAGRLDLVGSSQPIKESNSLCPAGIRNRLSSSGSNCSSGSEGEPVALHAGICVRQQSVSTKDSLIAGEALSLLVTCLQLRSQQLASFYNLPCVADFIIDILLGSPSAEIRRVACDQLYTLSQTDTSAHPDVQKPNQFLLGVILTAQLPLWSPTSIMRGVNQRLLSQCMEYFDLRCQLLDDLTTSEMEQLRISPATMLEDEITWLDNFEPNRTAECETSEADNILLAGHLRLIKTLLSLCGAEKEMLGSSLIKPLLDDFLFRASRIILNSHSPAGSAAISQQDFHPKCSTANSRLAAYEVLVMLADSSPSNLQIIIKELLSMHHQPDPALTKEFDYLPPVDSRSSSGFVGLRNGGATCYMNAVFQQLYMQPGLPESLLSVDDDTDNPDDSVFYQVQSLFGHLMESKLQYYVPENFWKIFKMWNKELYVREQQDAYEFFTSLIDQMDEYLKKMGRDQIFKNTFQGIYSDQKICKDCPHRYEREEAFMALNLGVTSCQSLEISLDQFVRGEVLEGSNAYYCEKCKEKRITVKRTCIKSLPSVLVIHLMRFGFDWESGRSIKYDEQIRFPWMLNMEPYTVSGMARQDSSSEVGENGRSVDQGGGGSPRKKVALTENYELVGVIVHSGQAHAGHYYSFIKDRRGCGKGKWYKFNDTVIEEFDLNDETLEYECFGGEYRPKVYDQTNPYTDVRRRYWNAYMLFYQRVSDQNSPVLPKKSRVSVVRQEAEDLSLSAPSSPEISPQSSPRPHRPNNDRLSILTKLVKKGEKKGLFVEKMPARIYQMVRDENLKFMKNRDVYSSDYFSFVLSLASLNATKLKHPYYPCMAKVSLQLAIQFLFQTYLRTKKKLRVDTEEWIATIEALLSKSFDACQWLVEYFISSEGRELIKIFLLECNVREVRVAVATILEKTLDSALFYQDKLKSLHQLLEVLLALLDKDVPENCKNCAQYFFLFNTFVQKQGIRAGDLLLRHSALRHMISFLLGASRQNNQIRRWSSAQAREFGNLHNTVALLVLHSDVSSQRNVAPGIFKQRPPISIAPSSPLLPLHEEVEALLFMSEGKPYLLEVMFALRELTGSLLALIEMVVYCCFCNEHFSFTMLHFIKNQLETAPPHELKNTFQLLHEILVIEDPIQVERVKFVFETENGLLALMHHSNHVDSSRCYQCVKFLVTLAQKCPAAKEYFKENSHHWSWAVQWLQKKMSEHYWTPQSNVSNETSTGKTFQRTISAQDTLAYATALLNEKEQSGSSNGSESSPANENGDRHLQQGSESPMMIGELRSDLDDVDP
UniProt Q9UGM6: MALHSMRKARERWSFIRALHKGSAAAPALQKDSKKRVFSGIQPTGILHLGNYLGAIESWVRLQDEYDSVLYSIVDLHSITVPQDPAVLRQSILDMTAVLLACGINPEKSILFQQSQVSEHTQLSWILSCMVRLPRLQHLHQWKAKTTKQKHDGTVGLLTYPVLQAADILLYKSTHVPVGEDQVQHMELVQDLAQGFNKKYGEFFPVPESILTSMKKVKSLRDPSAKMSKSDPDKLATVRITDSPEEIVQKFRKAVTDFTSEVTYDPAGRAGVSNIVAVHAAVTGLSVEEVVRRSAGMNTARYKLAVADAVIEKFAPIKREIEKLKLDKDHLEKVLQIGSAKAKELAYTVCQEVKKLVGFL
UniProt Q16881, whole entry: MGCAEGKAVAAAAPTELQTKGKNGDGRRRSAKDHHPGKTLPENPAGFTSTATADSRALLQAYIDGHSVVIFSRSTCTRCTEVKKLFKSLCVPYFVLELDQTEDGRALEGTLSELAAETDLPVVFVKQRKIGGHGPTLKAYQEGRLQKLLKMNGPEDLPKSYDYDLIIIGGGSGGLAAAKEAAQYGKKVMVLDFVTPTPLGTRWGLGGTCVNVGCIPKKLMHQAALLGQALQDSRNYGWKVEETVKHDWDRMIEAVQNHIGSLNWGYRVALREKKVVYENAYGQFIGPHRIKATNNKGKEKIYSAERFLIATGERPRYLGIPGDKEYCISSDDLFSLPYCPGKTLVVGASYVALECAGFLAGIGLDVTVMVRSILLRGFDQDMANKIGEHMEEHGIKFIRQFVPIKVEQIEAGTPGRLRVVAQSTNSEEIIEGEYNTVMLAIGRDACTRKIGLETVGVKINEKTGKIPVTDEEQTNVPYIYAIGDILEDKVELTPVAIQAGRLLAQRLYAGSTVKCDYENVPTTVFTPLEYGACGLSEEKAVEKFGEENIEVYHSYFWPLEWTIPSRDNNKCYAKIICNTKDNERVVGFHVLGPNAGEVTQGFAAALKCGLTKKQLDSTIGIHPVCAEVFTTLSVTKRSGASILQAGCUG
UniProt O75896: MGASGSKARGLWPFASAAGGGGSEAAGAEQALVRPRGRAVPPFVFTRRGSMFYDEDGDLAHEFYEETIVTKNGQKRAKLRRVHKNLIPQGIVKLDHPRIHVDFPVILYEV
UniProt P61081: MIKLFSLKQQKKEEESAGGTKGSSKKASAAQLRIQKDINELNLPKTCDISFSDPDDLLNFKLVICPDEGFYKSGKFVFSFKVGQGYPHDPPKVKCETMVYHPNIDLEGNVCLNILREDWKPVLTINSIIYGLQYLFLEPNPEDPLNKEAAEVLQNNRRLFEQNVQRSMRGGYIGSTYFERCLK
UniProt Q9UEU0: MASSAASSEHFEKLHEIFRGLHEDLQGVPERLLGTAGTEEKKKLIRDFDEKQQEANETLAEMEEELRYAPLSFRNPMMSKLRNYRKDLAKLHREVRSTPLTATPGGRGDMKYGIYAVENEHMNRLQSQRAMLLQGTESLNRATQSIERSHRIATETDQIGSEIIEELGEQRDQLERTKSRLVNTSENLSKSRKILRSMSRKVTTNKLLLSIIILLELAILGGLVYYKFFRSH
UniProt P51784: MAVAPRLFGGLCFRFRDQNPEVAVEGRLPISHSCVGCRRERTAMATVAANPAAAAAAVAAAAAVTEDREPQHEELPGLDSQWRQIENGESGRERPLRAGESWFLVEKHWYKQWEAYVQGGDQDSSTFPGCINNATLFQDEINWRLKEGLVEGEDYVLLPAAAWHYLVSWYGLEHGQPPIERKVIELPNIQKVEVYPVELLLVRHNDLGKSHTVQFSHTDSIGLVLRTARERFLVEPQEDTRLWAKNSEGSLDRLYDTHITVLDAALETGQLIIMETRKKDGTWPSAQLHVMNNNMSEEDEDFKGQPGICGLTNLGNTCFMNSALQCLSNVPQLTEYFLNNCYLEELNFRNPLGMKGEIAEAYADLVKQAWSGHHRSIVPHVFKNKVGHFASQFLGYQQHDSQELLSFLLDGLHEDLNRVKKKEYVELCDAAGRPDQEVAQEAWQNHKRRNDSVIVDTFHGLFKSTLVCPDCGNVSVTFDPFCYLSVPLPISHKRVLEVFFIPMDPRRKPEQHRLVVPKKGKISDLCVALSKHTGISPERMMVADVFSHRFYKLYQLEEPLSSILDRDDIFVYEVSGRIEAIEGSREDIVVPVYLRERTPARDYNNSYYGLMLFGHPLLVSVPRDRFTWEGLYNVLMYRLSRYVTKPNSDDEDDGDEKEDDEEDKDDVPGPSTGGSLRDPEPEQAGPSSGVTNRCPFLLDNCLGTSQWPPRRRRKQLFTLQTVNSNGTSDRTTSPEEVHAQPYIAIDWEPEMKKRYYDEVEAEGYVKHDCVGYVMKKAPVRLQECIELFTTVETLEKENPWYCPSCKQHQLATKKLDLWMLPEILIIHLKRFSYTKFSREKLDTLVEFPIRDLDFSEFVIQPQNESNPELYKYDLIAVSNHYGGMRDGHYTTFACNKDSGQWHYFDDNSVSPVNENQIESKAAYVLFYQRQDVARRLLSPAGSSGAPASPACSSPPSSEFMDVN

Row | Target | dose-dependent thermal stabilisation call
1 | UBE2G2 (UniProt P60604) | inactive: 0
2 | UCK2 (UniProt Q9BZX2) | inactive: 0
3 | UBE4A (UniProt Q14139) | inactive: 0
4 | URG4 (UniProt Q8TCY9) | inactive: 0
5 | TUBB (UniProt P07437) | active: 1
6 | VASP (UniProt P50552) | inactive: 0
7 | VPS4A (UniProt Q9UN37) | inactive: 0
8 | TUBA4A (UniProt P68366) | inactive: 0
9 | VRK1 (UniProt Q99986) | inactive: 0
10 | UNC13D (UniProt Q70J99) | inactive: 0
11 | UQCRQ (UniProt O14949) | inactive: 0
12 | UGP2 (UniProt Q16851) | inactive: 0
13 | VDAC1 (UniProt P21796) | inactive: 0
14 | U2AF1 (UniProt Q01081) | inactive: 0
15 | UBIAD1 (UniProt Q9Y5Z9) | inactive: 0
16 | TUBG1 (UniProt P23258) | inactive: 0
17 | UBA3 (UniProt Q8TBC4) | inactive: 0
18 | VRK2 (UniProt Q86Y07) | inactive: 0
19 | UBAC1 (UniProt Q9BSL1) | inactive: 0
20 | UBE2Q1 (UniProt Q7Z7E8) | inactive: 0

Row | Target | dose-dependent thermal stabilisation call
21 | UBP1 (UniProt Q9NZI7) | inactive: 0
22 | VPS53 (UniProt Q5VIR6) | inactive: 0
23 | USP24 (UniProt Q9UPU5) | inactive: 0
24 | TTC33 (UniProt Q6PID6) | inactive: 0
25 | VPS13B (UniProt Q7Z7G8) | inactive: 0
26 | UBE2V2 (UniProt Q15819) | inactive: 0
27 | WARS2 (UniProt Q9UGM6) | inactive: 0
28 | TXNRD1 (UniProt Q16881) | inactive: 0
29 | UFD1L (UniProt Q92890) | inactive: 0
30 | VPS72 (UniProt Q15906) | inactive: 0
31 | TYW3 (UniProt Q6IPR3) | inactive: 0
32 | UBR7 (UniProt Q8N806) | inactive: 0
33 | TUSC2 (UniProt O75896) | inactive: 0
34 | UBE2M (UniProt P61081) | inactive: 0
35 | UTP6 (UniProt Q9NYH9) | inactive: 0
36 | UQCRC1 (UniProt P31930) | inactive: 0
37 | UBQLN1 (UniProt Q9UMX0) | inactive: 0
38 | UBXN6 (UniProt Q9BZV1) | inactive: 0
39 | VTI1B (UniProt Q9UEU0) | inactive: 0
40 | USP11 (UniProt P51784) | inactive: 0

Pulled one by one from above:
Row | Target | dose-dependent thermal stabilisation call
37 | UBQLN1 (UniProt Q9UMX0) | inactive: 0
39 | VTI1B (UniProt Q9UEU0) | inactive: 0
